According to PubChem BioAssay AID624297 (National Center for Advancing Translational Sciences (NCATS), 2012):
Several values for one entry are separate records, joined by “and”; a condition that tells them apart may be missing. Identical values can stand only once. The campaign covered roughly 340,000 compounds. About 6,200 (1.8%) were called active. This list was built around the results that the source calls inconclusive (neither active nor inactive); the mix of calls is not that of the screen. Calls follow the shape of the dose curve; as a rule, active = well fitted activation curve with a large enough effect; inconclusive = small, poorly fitted or top-dose-only effect; inactive = no such curve, though single readings can be large or run the other way. Where the call is inconclusive, the potency comes from a doubtful curve fit.
Potency is read from the fitted curve at half-maximal effect.

Test: A quantitative high throughput screen for small molecules that induce DNA re-replication in SW480 colon adenocarcinoma cells. Also: nearly all actives have a fitted effect of over 55% in size. As to re-replication activation: % of control where 0% means no effect.
Settings: Hoechst DNA content imaging, 48 h; re-replication activation: at 46.1 µM (top of the series) unless noted
Summary of the method: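 Image-based DNA-content assay: after two days of treatment, nuclei were labelled with the DNA dye Hoechst and imaged, and hits were compounds raising the count of nuclei showing high fluorescence intensity.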
For Cc1occc1C(=O)N=Nc1c(O)n(C)c2ccccc12, the Potency was inconclusive: 6.51 µM [activator, single point]. In the case of O=C(COC(=O)CCSc1ccc(Cl)cc1)NCc1ccc(Cl)cc1, the “re-replication activation” value is reported as inactive: -0.93%. In the case of O=[N+]([O-])c1ccc(N2CCN(CCO)CC2)cc1NCc1ccco1, the “re-replication activation” value is reported as inactive: -2.49%. In the case of Cc1ccc(-c2cc(C(=O)N3CCCc4ccccc43)c3ccccc3n2)cc1, the Potency is reported as inconclusive: 29.1 µM [activator, single point]. With CC(C)CC1(C(=O)NCc2cc(F)cc(C(F)(F)F)c2)C=CCN1C(=O)c1ccccc1 (stereo not drawn) the “re-replication activation” value was inactive: 8.08%. With Cc1ccnc(NC(=O)CCC(=O)N(CC(=O)NCc2ccc(F)cc2)Cc2ccccc2)c1 the “re-replication activation” value was inactive: -3.69%. With COCC(C)NCc1cc(Br)ccc1OC (stereo not drawn) the Potency was inconclusive: 25.9 µM [activator, partial curve, poor fit]. In the case of Cc1nn2c(CN(C(=O)c3ccco3)c3ccccc3)nnc2c2ccccc12, the Potency is reported as inconclusive: 6.51 µM [activator, single point]. For Cc1cccn2c(=O)c3cc(C(=O)NCCN4CCOCC4)c(=N)n(CCN4CCOCC4)c3nc12, the Potency was active: 25.9 µM. In the case of Brc1nc(-c2ccccc2)nc(-c2ccccc2)c1Br, the “re-replication activation” value is reported as inactive: -6.56%. In the case of CCc1nnc(NC(=O)CSc2nncc(=O)n2N)s1, the Potency is reported as inconclusive: 0.184 µM [activator, full curve, poor fit]. In the case of CN(Cc1cnc2nc(N)nc(N)c2n1)c1ccc(C(=O)N[C@@H](CCC(=O)O)C(=O)O)cc1, the Potency is reported as inconclusive: 0.0891 µM [activator, full curve, poor fit]. For Cc1cc(NC(=O)CSc2nnc(-c3ccccc3F)n2N)no1, the “re-replication activation” value was inactive: -3.76%. With CC(=O)NC1CCCN(O)C(=O)/C=C(\C)CCOC(=O)C(NC(C)=O)CCCN(O)C(=O)/C=C(\C)CCOC(=O)C(NC(C)=O)CCCN(O)C(=O)/C=C(\C)CCOC1=O (stereo not drawn) the Potency was inconclusive: 0.164 µM [activator, full curve, poor fit]. In the case of COC(=O)CCC(=O)NC(=S)Nc1ccc(S(=O)(=O)Nc2cc(OC)nc(OC)n2)cc1, the Potency is reported as active: 2.59 µM. In the case of CCc1ccc(C(=O)NC2CCCCC2)s1, the “re-replication activation” value is reported as inactive: -3.77%. For Cc1ccc(NC(=O)C2(NC(=O)c3cccc(N4C(=O)CSC4c4ccccc4)c3)CCCCC2)cc1 (stereo not drawn), the Potency was inconclusive: 23.1 µM [activator, partial curve, poor fit]. With CCC(C)(C)NC(=O)CSc1nc(Cc2ccccc2)nc2ccccc12 the “re-replication activation” value was inactive: -3.71%. With COC(=O)CSc1nc(SCc2ccccc2Cl)nc2c1CCCC2 the Potency was inconclusive: 0.461 µM [activator, partial curve, poor fit]. In the case of COc1nc2ccccc2nc1CCC(=O)O, the “re-replication activation” value is reported as inactive: -13.2%. For Nc1ccc(NC(=O)c2cccc(C(=O)Nc3ccc(N)cc3Cl)c2)c(Cl)c1, the Potency was inconclusive: 25.9 µM [activator, single point]. For CC(=O)CC[N+](C)(C)C, the Potency was inconclusive: 18.4 µM [activator, single point]. In the case of Cc1ccc(N2CC(C(=O)OCC(=O)NNC(=O)c3ccccc3)CC2=O)cc1 (stereo not drawn), the “re-replication activation” value is reported as inactive: 1.72%. With Cc1ccc(S(=O)(=O)NC(CC(C)C)C(=O)N2CC(C)OC(C)C2)cc1 (stereo not drawn) the “re-replication activation” value was inactive: -3.34%. In the case of COc1cccc(CC(=O)OCC(=O)NCC(=O)Nc2cccc(C)c2C)c1, the Potency is reported as inconclusive: 16.4 µM [activator, single point]. In the case of CCOC(=O)N1CCN(S(=O)(=O)c2ccc(C(=O)NNc3nc4cc(C)cc(C)c4s3)cc2)CC1, the Potency is reported as inconclusive: 4.11 µM [activator, full curve]. In the case of COc1ccc(NC(=S)Nc2cc(-c3ccccc3)[nH]n2)cc1Cl, the Potency is reported as inconclusive: 18.4 µM [activator, single point]. In the case of C=CCNC(=S)NNC(=O)c1cc(-c2cccnc2)nc2ccccc12, the “re-replication activation” value is reported as inactive: 4.71%. With CC(C)(C)c1ccc(/C=N/NC(=O)Cc2c[nH]c3ccccc23)cc1 the Potency was inconclusive: 29.1 µM [activator, single point]. In the case of N#Cc1c(NC(=O)Cn2nc(C(F)(F)F)c3c2CCCC3)sc2c1CCC2, the Potency is reported as inconclusive: 11.6 µM [activator, single point]. For COc1cc(C2c3cc4c(cc3OC(Nc3ccc(C(=O)O)cc3)C2C)OCO4)cc(OC)c1OC (stereo not drawn), the Potency was active: 0.651 µM. With CC1(C)CC(=O)C2=C(C1)N(CCN1CCOCC1)C1=C(C(=O)CC(C)(C)C1)C2c1cccc(Cl)c1 the Potency was inconclusive: 18.4 µM [activator, partial curve, poor fit]. For Cc1ccc(C)c(Cc2c(C)nc3c(C(=O)N4CCOCC4)cnn3c2C)c1, the “re-replication activation” value was inactive: -3.08%. With Cc1ccc(C(C)NC(=S)NCc2ccc(F)cc2)cc1C (stereo not drawn) the Potency was inconclusive: 16.4 µM [activator, single point]. For CC(=O)c1cccc(N2Cc3ccccc3C2=NC(=O)CCl)c1, the Potency was inconclusive: 18.4 µM [activator, single point]. In the case of COc1ccc(NC(=O)CN(c2cc(C)cc(C)c2)S(=O)(=O)c2c(C)n[nH]c2C)cc1, the Potency is reported as inconclusive: 0.103 µM [activator, full curve, poor fit]. With CCOP1(=O)C=C(Sc2ccc([N+](=O)[O-])cc2[N+](=O)[O-])C(C)(C)O1 (stereo not drawn) the “re-replication activation” value was inactive: -10.9%. With Cc1ccc(CCNC(=O)C2CCCN(S(=O)(=O)c3c(C)noc3/C=C/N(C)C)C2)cc1 (stereo not drawn) the Potency was inconclusive: 32.6 µM [activator, partial curve, poor fit]. With O=C(NCCC1CCCCN1S(=O)(=O)c1ccccc1)C(=O)Nc1ccc(F)cc1F (stereo not drawn) the Potency was inconclusive: 25.1 µM [activator, single point]. For Cc1nc(N2CCCCCC2)c2ccccc2n1, the “re-replication activation” value was inactive: -4.38%. With Cc1ccc(S(=O)(=O)N2CCN(c3nc(C(C)C)c4c(c3C#N)CC(C)(C)OC4)CC2)cc1 the Potency was inconclusive: 17.8 µM [activator, partial curve, poor fit]. In the case of CCc1cc2c(C)ccc(C)c2nc1SCC(=O)Nc1c[nH]c(=O)[nH]c1=O, the Potency is reported as inconclusive: 29.1 µM [activator, partial curve, poor fit]. With CCN(CC)CCNc1ccc(CO)c2sc3ccccc3c(=O)c12 the Potency was inconclusive: 18.8 µM [activator, partial curve, poor fit] and inconclusive: 13 µM [activator, partial curve, poor fit]. With Cn1c(-c2ccccc2)c(/C=N/NC(=O)c2cccnc2)c2ccccc21 the Potency was inconclusive: 29.1 µM [activator, single point]. With CC(C)c1ccc(S(=O)(=O)N2CCN(C(=O)c3ccncc3)CC2)cc1 the Potency was inconclusive: 29.1 µM [activator, single point]. For COc1cc(/C=C/C(=O)c2c(O)ccc3c(C)cc(=O)oc23)ccc1O, the “re-replication activation” value was inactive: 3.96%. For S=C1Cc2ccccc2N1, the Potency was inconclusive: 3.66 µM [activator, partial curve, poor fit]. With Cc1ccc2nc(-c3cccc(SC4CCCCC4)c3)c(NCc3ccccc3)n2c1 the Potency was inconclusive: 18.4 µM [activator, single point]. With O=C(NC1CCCCC1)C1COc2ccccc2O1 (stereo not drawn) the “re-replication activation” value was inactive: -1.83%. In the case of CC(C)NC(=O)NC(=O)COC(=O)c1cccc(S(=O)(=O)N2CCCCC2)c1, the Potency is reported as inconclusive: 6.51 µM [activator, partial curve, poor fit]. In the case of CC(=O)c1sc(NC(=O)CCS(=O)(=O)c2ccc(C)cc2)nc1C, the Potency is reported as inconclusive: 0.411 µM [activator, full curve, poor fit]. In the case of O=C(c1cc2ccccc2o1)N1CCN(S(=O)(=O)c2ccccc2)CC1, the Potency is reported as inconclusive: 16.4 µM [activator, single point]. In the case of O=S(=O)(CCc1ccncc1)c1ccc(Cl)cc1, the “re-replication activation” value is reported as inactive: 1.32%. With CC1=CC(=Nc2c(C)n(C)n(-c3ccccc3)c2=O)C=C(C)C1=O the Potency was inconclusive: 0.116 µM [activator, full curve, poor fit]. With O=C(CCNC(=O)c1ccccc1Cl)Nc1nc2ccccc2[nH]1 the “re-replication activation” value was inactive: 0.449%. For O=C(/C=C/c1cccs1)c1ccc(NC(=O)c2cccc(Br)c2)cc1, the Potency was inconclusive: 20.6 µM [activator, single point]. With Cc1ccc(-c2cc(C(=O)O)n[nH]2)s1 the “re-replication activation” value was inactive: 4.06%. For COC(=O)C1=C(Nc2ccc(OC)cc2)C=C(C)C(C(=O)OC)C1c1ccc(C)cc1 (stereo not drawn), the Potency was inconclusive: 20.6 µM [activator, single point]. In the case of Cc1cccc(CS(=O)(=O)Cc2ccc(C(=O)NCc3ccccc3)o2)c1, the Potency is reported as inconclusive: 23.1 µM [activator, single point]. In the case of CCCSc1cc(N)cc([N+](=O)[O-])c1, the “re-replication activation” value is reported as inactive: 2.85%. With CCN1CCN(c2cc(C)c3cc(NC(=S)N(C)Cc4ccccc4)ccc3n2)CC1 the Potency was inconclusive: 20.6 µM [activator, single point]. For COc1ccc(CCNC(=O)CSc2nnnn2C)cc1OC, the “re-replication activation” value was inactive: 2.01%. In the case of CC1(c2ccccc2Cl)NC(=O)N(CC(=O)Nc2ccccc2OC(F)F)C1=O (stereo not drawn), the Potency is reported as inconclusive: 18.4 µM [activator, single point]. For CCOC(=O)c1[nH]c2ccc(Cl)cc2c1NC(=O)/C=C/c1ccc2c(c1)OCO2, the Potency was inconclusive: 5.17 µM [activator, partial curve, poor fit]. For COc1cc2cc(CN(Cc3cccnc3)C(=O)Nc3ccccc3)c(=O)[nH]c2cc1OC, the “re-replication activation” value was inactive: -11.1%. In the case of O=C(NC(=S)Nn1cnnc1)c1cccc(Br)c1, the Potency is reported as inconclusive: 6.51 µM [activator, single point]. For Cc1cc(C(=O)N/N=C/c2cc([N+](=O)[O-])cc(C)c2O)n[nH]1, the “re-replication activation” value was inactive: 14.2%. With Cc1[nH]c2c(C)cccc2c1CCNC(=O)c1ccc2c(c1[N+](=O)[O-])C(=O)c1ccccc1C2=O the Potency was active: 18.4 µM.
